# Source: the supplement of paper PMC6411743
# Chains of the proteins cited; added tags and fusions are not shown. Lines headed by an entry give the natural chain unless they say otherwise; changes in a name come on top.
# UniProt Q00169: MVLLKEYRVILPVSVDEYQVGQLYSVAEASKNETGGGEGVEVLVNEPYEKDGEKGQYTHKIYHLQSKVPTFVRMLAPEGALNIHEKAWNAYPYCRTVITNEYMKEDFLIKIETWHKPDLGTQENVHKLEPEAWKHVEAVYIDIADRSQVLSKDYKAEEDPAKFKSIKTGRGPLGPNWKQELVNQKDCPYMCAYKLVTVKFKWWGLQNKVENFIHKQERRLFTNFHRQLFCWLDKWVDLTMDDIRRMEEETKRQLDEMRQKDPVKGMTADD
# UniProt P53671: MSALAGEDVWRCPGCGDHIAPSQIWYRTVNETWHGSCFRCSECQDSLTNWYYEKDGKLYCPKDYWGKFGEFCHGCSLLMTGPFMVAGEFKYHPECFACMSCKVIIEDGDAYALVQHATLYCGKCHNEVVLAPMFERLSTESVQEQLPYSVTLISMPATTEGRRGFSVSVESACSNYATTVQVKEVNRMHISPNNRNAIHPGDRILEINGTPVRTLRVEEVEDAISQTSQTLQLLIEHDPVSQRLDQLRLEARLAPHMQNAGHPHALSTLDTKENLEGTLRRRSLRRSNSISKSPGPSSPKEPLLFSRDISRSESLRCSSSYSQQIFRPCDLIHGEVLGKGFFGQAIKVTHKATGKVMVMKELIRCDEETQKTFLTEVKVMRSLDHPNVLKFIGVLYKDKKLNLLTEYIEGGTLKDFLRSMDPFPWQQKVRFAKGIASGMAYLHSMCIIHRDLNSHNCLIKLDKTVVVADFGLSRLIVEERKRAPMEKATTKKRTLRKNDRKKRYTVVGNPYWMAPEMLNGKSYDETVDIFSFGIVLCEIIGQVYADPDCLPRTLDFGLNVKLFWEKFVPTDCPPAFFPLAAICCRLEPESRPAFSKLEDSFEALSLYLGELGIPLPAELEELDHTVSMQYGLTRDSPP
# UniProt P62942, whole entry: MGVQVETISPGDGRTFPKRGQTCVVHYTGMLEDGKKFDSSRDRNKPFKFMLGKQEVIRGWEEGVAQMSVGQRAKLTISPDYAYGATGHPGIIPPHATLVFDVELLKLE
# UniProt P62633: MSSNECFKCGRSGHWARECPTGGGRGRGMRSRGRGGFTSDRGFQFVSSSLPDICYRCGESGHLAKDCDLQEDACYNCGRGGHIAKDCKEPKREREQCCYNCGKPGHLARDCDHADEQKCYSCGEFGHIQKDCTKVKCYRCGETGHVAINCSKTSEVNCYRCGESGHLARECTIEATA
# UniProt P57740: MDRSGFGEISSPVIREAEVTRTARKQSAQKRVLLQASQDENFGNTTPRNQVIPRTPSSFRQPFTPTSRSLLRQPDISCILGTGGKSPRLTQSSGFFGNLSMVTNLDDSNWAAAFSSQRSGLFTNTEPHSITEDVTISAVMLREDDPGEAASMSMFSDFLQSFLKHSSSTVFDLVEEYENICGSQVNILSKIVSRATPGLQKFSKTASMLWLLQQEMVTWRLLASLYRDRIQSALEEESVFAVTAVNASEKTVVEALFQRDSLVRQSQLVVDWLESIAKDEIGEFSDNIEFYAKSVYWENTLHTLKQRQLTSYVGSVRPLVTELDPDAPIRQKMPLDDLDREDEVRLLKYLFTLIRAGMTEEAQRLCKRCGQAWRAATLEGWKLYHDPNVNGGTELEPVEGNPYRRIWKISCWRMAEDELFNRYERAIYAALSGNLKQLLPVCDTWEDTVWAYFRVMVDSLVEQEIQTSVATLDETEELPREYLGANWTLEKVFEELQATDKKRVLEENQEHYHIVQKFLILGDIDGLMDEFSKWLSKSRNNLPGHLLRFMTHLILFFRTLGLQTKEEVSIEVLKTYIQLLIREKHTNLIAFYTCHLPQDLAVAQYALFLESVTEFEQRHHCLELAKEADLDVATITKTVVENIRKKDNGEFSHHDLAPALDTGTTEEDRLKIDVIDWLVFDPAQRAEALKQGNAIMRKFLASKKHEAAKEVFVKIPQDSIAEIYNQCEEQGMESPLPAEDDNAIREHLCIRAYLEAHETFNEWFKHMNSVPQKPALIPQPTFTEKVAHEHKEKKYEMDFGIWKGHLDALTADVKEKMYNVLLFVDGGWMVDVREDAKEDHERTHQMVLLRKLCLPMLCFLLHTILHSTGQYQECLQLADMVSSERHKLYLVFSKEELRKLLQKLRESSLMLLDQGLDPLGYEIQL
# UniProt P55795: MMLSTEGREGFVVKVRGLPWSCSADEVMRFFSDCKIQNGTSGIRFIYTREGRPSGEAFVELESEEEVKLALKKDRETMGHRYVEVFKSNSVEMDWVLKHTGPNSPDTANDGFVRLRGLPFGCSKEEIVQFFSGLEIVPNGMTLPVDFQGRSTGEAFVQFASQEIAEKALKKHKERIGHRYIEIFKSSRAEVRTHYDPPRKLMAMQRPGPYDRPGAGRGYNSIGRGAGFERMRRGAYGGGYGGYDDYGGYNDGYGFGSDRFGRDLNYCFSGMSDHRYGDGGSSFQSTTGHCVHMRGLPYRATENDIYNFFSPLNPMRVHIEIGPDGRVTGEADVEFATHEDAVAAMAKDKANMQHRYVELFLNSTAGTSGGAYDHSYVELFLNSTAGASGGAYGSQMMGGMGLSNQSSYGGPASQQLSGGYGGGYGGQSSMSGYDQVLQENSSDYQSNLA
# UniProt P78417: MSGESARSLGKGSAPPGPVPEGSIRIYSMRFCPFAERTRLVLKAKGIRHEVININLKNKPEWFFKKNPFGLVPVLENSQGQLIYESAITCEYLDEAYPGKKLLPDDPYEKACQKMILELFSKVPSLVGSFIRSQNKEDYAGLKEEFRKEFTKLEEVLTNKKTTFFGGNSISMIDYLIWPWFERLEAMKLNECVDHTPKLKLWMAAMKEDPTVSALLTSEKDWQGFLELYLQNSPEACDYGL
# UniProt P55160: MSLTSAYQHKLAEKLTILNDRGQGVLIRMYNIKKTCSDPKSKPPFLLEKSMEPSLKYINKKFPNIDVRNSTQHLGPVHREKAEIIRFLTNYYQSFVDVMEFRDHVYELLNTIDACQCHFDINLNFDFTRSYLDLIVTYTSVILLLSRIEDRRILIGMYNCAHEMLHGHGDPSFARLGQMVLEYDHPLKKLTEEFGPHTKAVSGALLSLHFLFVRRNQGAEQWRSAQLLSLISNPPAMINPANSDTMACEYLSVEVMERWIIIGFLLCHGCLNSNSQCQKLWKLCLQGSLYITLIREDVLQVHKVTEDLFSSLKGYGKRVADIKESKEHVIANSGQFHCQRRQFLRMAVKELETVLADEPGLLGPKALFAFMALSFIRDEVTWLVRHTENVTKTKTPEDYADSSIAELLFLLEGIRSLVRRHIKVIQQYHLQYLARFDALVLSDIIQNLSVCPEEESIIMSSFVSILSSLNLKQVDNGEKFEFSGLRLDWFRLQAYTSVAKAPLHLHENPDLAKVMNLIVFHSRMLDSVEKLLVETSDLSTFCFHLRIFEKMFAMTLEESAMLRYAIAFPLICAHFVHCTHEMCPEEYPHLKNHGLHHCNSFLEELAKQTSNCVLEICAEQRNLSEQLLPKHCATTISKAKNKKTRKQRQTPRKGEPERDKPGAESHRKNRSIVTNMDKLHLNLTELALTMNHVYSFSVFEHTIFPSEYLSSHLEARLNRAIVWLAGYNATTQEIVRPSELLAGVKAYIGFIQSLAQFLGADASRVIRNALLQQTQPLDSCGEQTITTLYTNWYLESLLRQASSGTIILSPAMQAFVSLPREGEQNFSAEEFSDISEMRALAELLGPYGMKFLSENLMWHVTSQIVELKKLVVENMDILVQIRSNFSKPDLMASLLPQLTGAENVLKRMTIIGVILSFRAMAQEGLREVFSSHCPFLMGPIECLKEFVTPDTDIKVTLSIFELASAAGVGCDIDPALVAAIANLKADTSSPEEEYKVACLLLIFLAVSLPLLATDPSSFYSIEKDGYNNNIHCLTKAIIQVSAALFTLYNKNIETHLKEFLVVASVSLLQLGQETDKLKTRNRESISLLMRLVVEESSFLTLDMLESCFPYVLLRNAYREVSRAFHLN
# UniProt P53801: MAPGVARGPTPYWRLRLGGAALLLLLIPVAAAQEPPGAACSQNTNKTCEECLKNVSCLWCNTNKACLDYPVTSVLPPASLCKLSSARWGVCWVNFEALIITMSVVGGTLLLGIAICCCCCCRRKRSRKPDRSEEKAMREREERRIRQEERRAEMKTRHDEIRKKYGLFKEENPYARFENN
# UniProt P57081: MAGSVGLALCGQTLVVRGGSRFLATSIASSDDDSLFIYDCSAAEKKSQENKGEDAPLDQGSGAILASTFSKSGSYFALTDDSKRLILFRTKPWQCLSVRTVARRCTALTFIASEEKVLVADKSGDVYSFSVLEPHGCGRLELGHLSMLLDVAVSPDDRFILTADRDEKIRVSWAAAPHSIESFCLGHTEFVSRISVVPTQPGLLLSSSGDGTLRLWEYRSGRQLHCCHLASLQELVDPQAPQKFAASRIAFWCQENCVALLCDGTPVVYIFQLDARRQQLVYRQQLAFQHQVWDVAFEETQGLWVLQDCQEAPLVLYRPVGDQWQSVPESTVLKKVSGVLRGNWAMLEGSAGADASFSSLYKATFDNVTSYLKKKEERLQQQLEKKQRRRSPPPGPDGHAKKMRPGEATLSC
# UniProt Q00536: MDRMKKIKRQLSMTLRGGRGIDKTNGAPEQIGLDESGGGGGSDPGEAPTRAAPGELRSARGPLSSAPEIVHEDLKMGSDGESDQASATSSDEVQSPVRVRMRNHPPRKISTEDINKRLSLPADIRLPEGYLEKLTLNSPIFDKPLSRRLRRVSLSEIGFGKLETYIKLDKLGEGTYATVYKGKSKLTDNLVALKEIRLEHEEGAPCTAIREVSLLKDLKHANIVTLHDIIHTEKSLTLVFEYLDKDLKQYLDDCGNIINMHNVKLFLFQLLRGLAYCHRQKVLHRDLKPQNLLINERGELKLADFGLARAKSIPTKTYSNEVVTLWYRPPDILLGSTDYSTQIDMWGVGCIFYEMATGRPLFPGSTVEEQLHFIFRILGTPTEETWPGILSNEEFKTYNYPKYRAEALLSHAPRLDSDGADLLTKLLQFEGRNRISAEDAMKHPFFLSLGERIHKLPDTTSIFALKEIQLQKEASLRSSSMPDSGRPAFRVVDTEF
# UniProt P63092, whole entry, looked up: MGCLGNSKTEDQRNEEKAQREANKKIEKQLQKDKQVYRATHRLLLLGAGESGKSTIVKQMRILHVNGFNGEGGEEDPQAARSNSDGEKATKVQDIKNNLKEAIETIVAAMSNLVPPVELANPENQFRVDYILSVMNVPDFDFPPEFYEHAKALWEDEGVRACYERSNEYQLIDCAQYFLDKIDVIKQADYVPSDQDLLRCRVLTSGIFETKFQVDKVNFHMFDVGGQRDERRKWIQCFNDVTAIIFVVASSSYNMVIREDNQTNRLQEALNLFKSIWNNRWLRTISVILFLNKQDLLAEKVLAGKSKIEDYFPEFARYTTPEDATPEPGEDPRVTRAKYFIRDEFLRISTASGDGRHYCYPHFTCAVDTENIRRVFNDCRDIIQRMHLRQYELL
# UniProt P55072, whole entry, looked up: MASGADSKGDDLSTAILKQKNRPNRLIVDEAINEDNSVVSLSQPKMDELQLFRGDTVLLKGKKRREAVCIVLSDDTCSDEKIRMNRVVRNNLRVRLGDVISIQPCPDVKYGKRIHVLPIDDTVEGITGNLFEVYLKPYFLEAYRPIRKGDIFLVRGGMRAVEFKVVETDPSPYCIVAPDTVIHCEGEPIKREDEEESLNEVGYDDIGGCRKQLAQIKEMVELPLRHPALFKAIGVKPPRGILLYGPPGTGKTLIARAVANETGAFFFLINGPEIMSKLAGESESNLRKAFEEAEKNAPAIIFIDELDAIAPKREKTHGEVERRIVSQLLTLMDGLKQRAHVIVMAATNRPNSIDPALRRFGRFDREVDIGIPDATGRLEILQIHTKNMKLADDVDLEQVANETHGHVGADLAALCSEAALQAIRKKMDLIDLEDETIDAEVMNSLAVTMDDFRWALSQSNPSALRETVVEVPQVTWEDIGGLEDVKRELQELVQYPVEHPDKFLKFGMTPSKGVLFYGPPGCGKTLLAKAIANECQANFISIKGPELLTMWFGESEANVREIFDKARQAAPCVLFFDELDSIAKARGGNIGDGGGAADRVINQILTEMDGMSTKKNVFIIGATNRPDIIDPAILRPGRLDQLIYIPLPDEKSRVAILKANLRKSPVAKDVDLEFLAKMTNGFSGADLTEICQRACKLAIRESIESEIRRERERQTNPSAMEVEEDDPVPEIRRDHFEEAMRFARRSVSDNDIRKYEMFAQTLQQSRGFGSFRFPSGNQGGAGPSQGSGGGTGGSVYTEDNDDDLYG
# UniProt P62072: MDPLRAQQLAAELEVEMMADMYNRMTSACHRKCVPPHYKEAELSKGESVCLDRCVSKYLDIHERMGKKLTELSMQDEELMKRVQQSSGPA
# UniProt P78345: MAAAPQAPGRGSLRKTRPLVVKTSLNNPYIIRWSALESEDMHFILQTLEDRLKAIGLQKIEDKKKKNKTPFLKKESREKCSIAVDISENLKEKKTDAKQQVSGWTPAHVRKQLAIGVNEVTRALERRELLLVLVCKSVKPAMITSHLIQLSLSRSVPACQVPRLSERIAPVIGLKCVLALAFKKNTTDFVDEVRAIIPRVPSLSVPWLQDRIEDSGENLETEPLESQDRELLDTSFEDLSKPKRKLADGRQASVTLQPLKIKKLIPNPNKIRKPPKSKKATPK
# ± gives the standard deviation of the averaged measurements. This is a selection; strong and weak results do not stand in their true shares.
# Compound: Nc1ncnc2c1ncn2[C@@H]1O[C@H](COP(=O)(O)OP(=O)(O)OP(=O)(O)O)[C@@H](O)[C@H]1O [adenosine triphosphate]
# Experiment: NP40-soluble protein abundance relative to vehicle (solubility fold change) (ratio); higher = more soluble protein in presence of ATP
# How it was run: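 Jurkat crude lysate (Dounce-homogenised) was treated with eight concentrations from 0.1 to 10 mM for 10 min at room temperature, then 3 min at 37 °C. It was solubilised with 0.8% NP40 and benzonase (60 min, 4 °C) and ultracentrifuged, and the supernatant was TMT-labelled for LC-MS/MS. Intensities were vsn-normalised, and the value is the fold change against the NP40-processed vehicle per replicate, from three independent experiments.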
Target,NP40-soluble protein abundance (concentration: 1mM),NP40-soluble protein abundance (concentration: 2mM),NP40-soluble protein abundance (concentration: 4mM),NP40-soluble protein abundance (concentration: 6mM),NP40-soluble protein abundance (concentration: 8mM),NP40-soluble protein abundance (concentration: 10mM)
PITPNA (UniProt Q00169),0.98 ± 0.043,0.979 ± 0.051,0.955 ± 0.038,0.947 ± 0.085,0.949 ± 0.025,0.947 ± 0.048
UniProt P53671 and related entries,1.15 ± 0.094,1.1 ± 0.027,1.1 ± 0.028,1.06 ± 0.1,1.14 ± 0.064,1.13 ± 0.024
UniProt P62280,0.87 ± 0.066,0.782 ± 0.13,0.719 ± 0.13,0.705 ± 0.15,0.652 ± 0.14,0.727 ± 0.12
B2M (UniProt P61769),0.984 ± 0.041,0.944 ± 0.018,0.88 ± 0.022,0.977 ± 0.014,0.921 ± 0.086,0.884 ± 0.01
FKBP1A (UniProt P62942),1.11 ± 0.17,0.987 ± 0.1,0.986 ± 0.028,1.02 ± 0.048,0.968 ± 0.018,0.957 ± 0.059
GFER (UniProt P55789),1.02 ± 0.092,0.979 ± 0.047,1.01 ± 0.06,0.992 ± 0.13,1.03 ± 0.076,0.826 ± 0.14
UniProt P62241,0.866 ± 0.034,0.793 ± 0.099,0.709 ± 0.07,0.693 ± 0.12,0.59 ± 0.073,0.677 ± 0.095
UniProt P61009,0.99 ± 0.05,1.01 ± 0.069,0.973 ± 0.031,0.933 ± 0.085,0.916 ± 0.035,0.978 ± 0.065
PEX3 (UniProt P56589),1.015 ± 0.0073,1.02 ± 0.03,0.982 ± 0.012,0.981 ± 0.084,0.986 ± 0.05,0.966 ± 0.013
UniProt P62633 and related entries,1.01 ± 0.021,0.979 ± 0.047,0.99 ± 0.028,1.01 ± 0.028,1.01 ± 0.044,0.965 ± 0.059
UniProt P53396 and related entries,1.02 ± 0.091,0.98 ± 0.076,0.964 ± 0.054,0.929 ± 0.073,0.991 ± 0.048,0.969 ± 0.069
DYNLT1 (UniProt P63172),0.972 ± 0.065,1.02 ± 0.045,0.918 ± 0.047,1.03 ± 0.16,1 ± 0.13,0.985 ± 0.09
NUP107 (UniProt P57740),1.08 ± 0.061,1.04 ± 0.047,1.06 ± 0.06,1.05 ± 0.065,1.1 ± 0.069,1.11 ± 0.056
HNRNPH2 (UniProt P55795),1.04 ± 0.064,1.04 ± 0.046,1.05 ± 0.037,1.01 ± 0.059,1.07 ± 0.052,1.04 ± 0.068
MRPS9 (UniProt P82933),1.02 ± 0.043,0.953 ± 0.053,0.943 ± 0.071,0.94 ± 0.17,0.941 ± 0.12,0.893 ± 0.094
GSTO1 (UniProt P78417),0.956 ± 0.08,0.938 ± 0.058,0.897 ± 0.055,0.901 ± 0.088,0.914 ± 0.04,0.879 ± 0.052
NCKAP1L (UniProt P55160),1.06 ± 0.13,1.02 ± 0.099,0.997 ± 0.065,0.913 ± 0.11,1.04 ± 0.047,0.985 ± 0.07
PTTG1IP (UniProt P53801),0.932 ± 0.066,0.915 ± 0.06,0.925 ± 0.021,1.04 ± 0.09,0.912 ± 0.058,0.888 ± 0.11
UniProt P57081 and related entries,1.02 ± 0.1,1.04 ± 0.091,1.03 ± 0.1,0.946 ± 0.039,0.968 ± 0.079,0.996 ± 0.021
RAD23B (UniProt P54727),0.894 ± 0.11,0.896 ± 0.059,0.867 ± 0.073,0.929 ± 0.095,0.861 ± 0.014,0.812 ± 0.068
UniProt Q00536 and related entries,0.955 ± 0.058,0.97 ± 0.072,0.9 ± 0.04,0.948 ± 0.016,0.968 ± 0.012,0.947 ± 0.019
UniProt P62857,0.829 ± 0.12,0.783 ± 0.14,0.736 ± 0.16,0.793 ± 0.23,0.607 ± 0.15,0.684 ± 0.11
YARS (UniProt P54577),0.992 ± 0.025,0.97 ± 0.031,0.926 ± 0.033,0.998 ± 0.057,0.954 ± 0.04,0.944 ± 0.039
UniProt P63092 and related entries,1.02 ± 0.041,1.02 ± 0.019,0.968 ± 0.028,0.99 ± 0.078,0.982 ± 0.017,0.998 ± 0.033
FKBP3 (UniProt Q00688),0.977 ± 0.074,0.954 ± 0.021,0.908 ± 0.025,0.998 ± 0.022,0.918 ± 0.033,0.934 ± 0.049
UniProt P55072,0.979 ± 0.013,0.949 ± 0.016,0.914 ± 0.016,0.931 ± 0.041,0.932 ± 0.033,0.924 ± 0.048
UniProt P62072,0.974 ± 0.055,0.971 ± 0.12,1 ± 0.14,1.04 ± 0.052,0.957 ± 0.089,0.918 ± 0.12
UniProt P53384 and related entries,0.98 ± 0.035,0.942 ± 0.016,0.928 ± 0.031,0.964 ± 0.056,0.883 ± 0.032,0.914 ± 0.038
POLR2K (UniProt P53803),1.02 ± 0.12,1.03 ± 0.049,1.08 ± 0.11,1.02 ± 0.051,1.02 ± 0.082,1.12 ± 0.083
RPP38 (UniProt P78345),0.96 ± 0.065,0.987 ± 0.037,0.998 ± 0.034,0.97 ± 0.09,0.995 ± 0.061,0.981 ± 0.046

# Single values from the results shown.
# NP40-soluble protein abundance (concentration: 6mM), PITPNA (UniProt Q00169) is entered as 0.947 ± 0.085
# NP40-soluble protein abundance (concentration: 10mM), UniProt P53396 and related entries is entered as 0.969 ± 0.069
